Data reported in PubChem BioAssay AID256 (DTP/NCI, 2004).
The list does not hold the whole screen: it gathers tests that were run many times, whatever their T/C, doses with no T/C, and many T/C values between a quarter and a half above the control. Further doses and runs are listed elsewhere. T/C gives the treated animals as a percentage of the vehicle group. Some doses have a count of surviving animals in place of a T/C: the source files T/C as zero there, which appears to mark a toxic dose or a test without result, not a measured value. Some survivor counts are full or nearly so, which does not show that the dose was tolerated: survival well below the control is almost never listed, so the zero probably covers shortened survival too. Survivors were counted at the toxicity check, usually on the fifth day, unless a day is given; later deaths do not show. Schedule codes are those of the source, read here as Q, the interval in days (D) or hours (H), X, the number of doses. Where survival is the endpoint, the PubChem record calls one and a half times the control and up active, and a quarter to a half above the control has no call in these data; cut-offs in other NCI protocols can differ. Additions like (4×) give the number of equal values in this list. Some T/C values are followed by the survivors on the day toxicity was checked, most often the fifth; without a count, all were alive then. Some entries hold several experiments; the results are listed from low to high. Some schedules carry Z or #; the key to these is not given.

Tested on: CD2F1 mice, L1210 leukemia ip, survival T/C
Experiment: NCI In Vivo Anticancer Drug Screen. Data for tumor model L1210 Leukemia (intraperitoneal) in CD2F1 (CDF1) mice
Details: vehicle: saline, higher T/C = longer survival
In short: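 Read-out first: treated-group measurement over vehicle-control measurement, expressed as a ratio. Animals bore a transplanted tumor line and were dosed with compound or vehicle.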

[1] = T/C endpoint: median survival time, dose: 80.0 mg/kg/injection, schedule: Q04DX003 (ip)

[N-]=[N+]=CC(=O)CCC(N)C(=O)O (stereo unspecified)
T/C (T/C endpoint: mean survival time, dose: 0.05 mg/kg/injection, schedule: Q01DX009 (ip)): 133 % of control | T/C (T/C endpoint: mean survival time, dose: 0.1 mg/kg/injection, schedule: Q01DX007 (ip)): 130 % of control | T/C (T/C endpoint: mean survival time, dose: 0.1 mg/kg/injection, schedule: Q01DX009 (ip), evaluated on day 30): 134, 146, 158 % of control | T/C (T/C endpoint: mean survival time, dose: 0.1 mg/kg/injection, schedule: Q01DX009 (ip), evaluated on day 60): 127 % of control | T/C (T/C endpoint: mean survival time, dose: 0.1 mg/kg/injection, schedule: Q01DX009 (oral)): 125 % of control | T/C (T/C endpoint: mean survival time, dose: 0.1 mg/kg/injection, schedule: Q01DX009 (sc)): 130 % of control | T/C (T/C endpoint: mean survival time, dose: 0.2 mg/kg/injection, schedule: Q01DX007 (ip)): 140 % of control | T/C (T/C endpoint: mean survival time, dose: 0.2 mg/kg/injection, schedule: Q01DX009 (ip), evaluated on day 30): 136, 138, 172 % of control | T/C (T/C endpoint: mean survival time, dose: 0.2 mg/kg/injection, schedule: Q01DX009 (ip), evaluated on day 60): 147 % of control | T/C (T/C endpoint: mean survival time, dose: 0.2 mg/kg/injection, schedule: Q01DX009 (sc)): 135 % of control | T/C (T/C endpoint: mean survival time, dose: 0.4 mg/kg/injection, schedule: Q01DX007 (ip)): 130 % of control | T/C (T/C endpoint: mean survival time, dose: 0.4 mg/kg/injection, schedule: Q01DX009 (ip), evaluated on day 30): 93 [5 of 6 alive], 131, 189 % of control | T/C (T/C endpoint: mean survival time, dose: 0.4 mg/kg/injection, schedule: Q01DX009 (ip), evaluated on day 60): 123 % of control | T/C (T/C endpoint: mean survival time, dose: 0.4 mg/kg/injection, schedule: Q01DX009 (oral)): 138 % of control | T/C (T/C endpoint: mean survival time, dose: 0.4 mg/kg/injection, schedule: Q01DX009 (sc)): 138 % of control | T/C (T/C endpoint: mean survival time, dose: 0.4 mg/kg/injection, schedule: Q03DX003 (ip)): 128 % of control | T/C (T/C endpoint: mean survival time, dose: 0.4 mg/kg/injection, schedule: Q04DX003 (ip)): 127 % of control | T/C (T/C endpoint: mean survival time, dose: 0.8 mg/kg/injection, schedule: Q01DX009 (oral)): 136 % of control | T/C (T/C endpoint: mean survival time, dose: 0.8 mg/kg/injection, schedule: Q03HX016 (ip)): 145 % of control [7 of 10 alive] | survivor count (T/C endpoint: mean survival time, dose: 1.6 mg/kg/injection, schedule: Q03HX008 (ip)): 6 of 10 | T/C (T/C endpoint: mean survival time, dose: 1.6 mg/kg/injection, schedule: Q03HX016 (ip)): 145 % of control [7 of 10 alive] | survivor count (T/C endpoint: mean survival time, dose: 3.1 mg/kg/injection, schedule: Q03HX008 (ip)): 3 of 10 | survivor count (T/C endpoint: mean survival time, dose: 3.1 mg/kg/injection, schedule: Q03HX024 (ip)): 8 of 10 | T/C (T/C endpoint: mean survival time, dose: 3.1 mg/kg/injection, schedule: Q04DX003 (ip)): 149 % of control | survivor count (T/C endpoint: mean survival time, dose: 6.2 mg/kg/injection, schedule: Q03HX024 (ip)): 6 of 10 | survivor count (T/C endpoint: mean survival time, dose: 6.25 mg/kg/injection, schedule: Q03HX016 (ip)): 5 of 10 | T/C (T/C endpoint: mean survival time, dose: 6.25 mg/kg/injection, schedule: Q08DX002 (ip)): 127 % of control | T/C (T/C endpoint: mean survival time, dose: 12.5 mg/kg/injection, schedule: Q01DX001 (ip)): 139 % of control | T/C (T/C endpoint: mean survival time, dose: 12.5 mg/kg/injection, schedule: Q01DX001 (sc)): 135 % of control | survivor count (T/C endpoint: mean survival time, dose: 12.5 mg/kg/injection, schedule: Q03HX008 (ip)): 6 of 10 | survivor count (T/C endpoint: mean survival time, dose: 12.5 mg/kg/injection, schedule: Q03HX016 (ip)): 3 of 10 | T/C (T/C endpoint: mean survival time, dose: 12.5 mg/kg/injection, schedule: Q04DX003 (ip)): 144 % of control | T/C (T/C endpoint: mean survival time, dose: 12.5 mg/kg/injection, schedule: Q08DX002 (ip)): 138 % of control | T/C (T/C endpoint: mean survival time, dose: 25.0 mg/kg/injection, schedule: Q01DX001 (ip)): 144 % of control | T/C (T/C endpoint: mean survival time, dose: 25.0 mg/kg/injection, schedule: Q01DX001 (oral)): 131 % of control | T/C (T/C endpoint: mean survival time, dose: 25.0 mg/kg/injection, schedule: Q01DX001 (sc)): 133 % of control | survivor count (T/C endpoint: mean survival time, dose: 25.0 mg/kg/injection, schedule: Q03HX008 (ip)): 4 of 10 | T/C (T/C endpoint: mean survival time, dose: 50.0 mg/kg/injection, schedule: Q01DX001 (oral)): 137 % of control | T/C (T/C endpoint: mean survival time, dose: 50.0 mg/kg/injection, schedule: Q01DX001 (sc)): 141 % of control | T/C (T/C endpoint: mean survival time, dose: 100.0 mg/kg/injection, schedule: Q01DX001 (sc)): 130 % of control | T/C (T/C endpoint: mean survival time, dose: 200.0 mg/kg/injection, schedule: Q01DX001 (ip)): 137 % of control | survivor count (T/C endpoint: mean survival time, dose: 400.0 mg/kg/injection, schedule: Q01DX001 (oral)): 3 of 10 | T/C (T/C endpoint: mean survival time, dose: 100.0 micrograms/kg/injection, schedule: Q01DX Z (ip)): 125 % of control | T/C (T/C endpoint: mean survival time, dose: 187.5 micrograms/kg/injection, schedule: Q01DX009 (ip)): 125 % of control | survivor count (T/C endpoint: mean survival time, dose: 375.0 micrograms/kg/injection, schedule: Q01DX009 (ip)): 6 of 6 | survivor count (T/C endpoint: mean survival time, dose: 750.0 micrograms/kg/injection, schedule: Q01DX009 (ip)): 6 of 6 | survivor count (T/C endpoint: mean survival time, dose: 1500.0 micrograms/kg/injection, schedule: Q01DX009 (ip)): 6 of 6 | survivor count (T/C endpoint: mean survival time, dose: 3000.0 micrograms/kg/injection, schedule: Q01DX009 (ip)): 6 of 6 | T/C (T/C endpoint: median survival time, dose: 0.05 mg/kg/injection, schedule: Q01DX009 (ip), evaluated on day 5): 104, 121, 129 % of control | T/C (T/C endpoint: median survival time, dose: 0.05 mg/kg/injection, schedule: Q01DX009 (ip), evaluated on day 30): 122 % of control | T/C (T/C endpoint: median survival time, dose: 0.1 mg/kg/injection, schedule: Q01DX009 (ip), evaluated on day 5): 113, 136, 140 % of control | T/C (T/C endpoint: median survival time, dose: 0.1 mg/kg/injection, schedule: Q01DX009 (ip), evaluated on day 30): 133 % of control | T/C (T/C endpoint: median survival time, dose: 0.1 mg/kg/injection, schedule: Q01DX009 (ip), evaluated on day 60): 154 % of control | T/C (T/C endpoint: median survival time, dose: 0.13 mg/kg/injection, schedule: Q01DX009 (ip)): 135 % of control | T/C (T/C endpoint: median survival time, dose: 0.2 mg/kg/injection, schedule: Q01DX009 (ip), evaluated on day 5): 116, 135, 144 % of control | T/C (T/C endpoint: median survival time, dose: 0.2 mg/kg/injection, schedule: Q01DX009 (ip), evaluated on day 30): 111 % of control | T/C (T/C endpoint: median survival time, dose: 0.2 mg/kg/injection, schedule: Q01DX009 (ip), evaluated on day 60): 129 % of control | T/C (T/C endpoint: median survival time, dose: 0.4 mg/kg/injection, schedule: Q01DX009 (ip), evaluated on day 5): 124, 145, 147 % of control | T/C (T/C endpoint: median survival time, dose: 0.4 mg/kg/injection, schedule: Q01DX009 (ip), evaluated on day 30): 116 % of control | T/C (T/C endpoint: median survival time, dose: 0.63 mg/kg/injection, schedule: Q04DX003 (ip)): 129 and 131 % of control | survivor count (T/C endpoint: median survival time, dose: 0.76 mg/kg/injection, schedule: Q01DX009 (ip)): 9 of 10 | T/C (T/C endpoint: median survival time, dose: 1.25 mg/kg/injection, schedule: Q04DX003 (ip)): 133 % of control (2×) | survivor count (T/C endpoint: median survival time, dose: 1.56 mg/kg/injection, schedule: Q01DX009 (ip)): 4 of 10 | survivor count (T/C endpoint: median survival time, dose: 3.12 mg/kg/injection, schedule: Q01DX009 (ip)): 6 of 6 | survivor count (T/C endpoint: median survival time, dose: 3.13 mg/kg/injection, schedule: Q01DX009 (ip)): 7 of 10 | survivor count (T/C endpoint: median survival time, dose: 6.25 mg/kg/injection, schedule: Q01DX009 (ip)): 2 of 6 | survivor count (T/C endpoint: median survival time, dose: 12.5 mg/kg/injection, schedule: Q01DX009 (ip)): 0 of 6 | T/C (T/C endpoint: median survival time, dose: 25.0 mg/kg/injection, schedule: Q01DX001 (ip), evaluated on day 5): 129 % of control | T/C (T/C endpoint: median survival time, dose: 25.0 mg/kg/injection, schedule: Q01DX001 (ip), evaluated on day 60): 129 % of control [9 of 10 alive] | survivor count (T/C endpoint: median survival time, dose: 25.0 mg/kg/injection, schedule: Q01DX009 (ip)): 0 of 6 | T/C (T/C endpoint: median survival time, dose: 50.0 mg/kg/injection, schedule: Q01DX001 (ip), evaluated on day 5): 136 % of control | T/C (T/C endpoint: median survival time, dose: 50.0 mg/kg/injection, schedule: Q01DX001 (ip), evaluated on day 60): 136 % of control | survivor count (T/C endpoint: median survival time, dose: 50.0 mg/kg/injection, schedule: Q01DX009 (ip)): 0 of 6 | T/C [1]: 133 % of control | survivor count [1]: 6 of 8 | survivor count (T/C endpoint: median survival time, dose: 100.0 mg/kg/injection, schedule: Q01DX009 (ip)): 0 of 6
